Measured values from PubChem BioAssay AID588463 (National Center for Advancing Translational Sciences (NCATS), 2011).
The campaign covered roughly 1,200 compounds. About 15 (1%) were called active. Not shown: some 7% with an inconclusive outcome. Calls come from the whole dose curve; as a rule, active = well fitted activation curve with a large enough effect; inconclusive = small, poorly fitted or top-dose-only effect; inactive = flat fitted curve, though single readings scatter. This is one part of the list.

Target: Beta-2 adrenergic receptor (Homo sapiens) (UniProt P07550)
Experiment: qHTS assay of beta-arrestin-biased ligands of beta2-adrenergic receptor: Hit Validation;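 note: plate controls were DMSO for no effect and maximal isoproterenol or metaproterenol response for full effect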
Conditions: cell-based beta-arrestin recruitment to beta2AR; Potency: activation; series mostly up to 46.1 µM; activation: at the top concentration
In short: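 Luminescent tTA-driven luciferase reporter in Tango cells, read after 18 h at 37 °C with compound and 15 min with substrate mix (0.15 mM ATP, 0.44 mM D-luciferin, final). Concentration-response fits categorized by curve class.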

SMILES	activation
COC(=O)C1=C(C)NC(=S)NC1c1ccc(-c2cc(Cl)ccc2Cl)o1 (centres undefined)	inactive: -1.05%
O=C(Oc1c(Cl)cc(Cl)c2cccnc12)c1cccs1	inactive: -2.15%
CCCCC(=O)NC(=S)Nc1nnn(CCC)n1	inactive: -5.04%
O=C(COc1ccc2ccccc2c1)Nc1ccc(Br)cc1C(=O)O	inactive: -2.26%
COc1ccc(NC(=S)N/N=C/c2ccc(F)c(F)c2)cc1	inactive: -3.06%
O=C(CSc1cccc[n+]1[O-])c1ccc(Cl)s1	inactive: -3.9%
O=C(N/N=C/C(Br)=C/c1ccccc1)c1cnccn1	inactive: 3.91%
CCOCCc1c(O)nc(SC)[nH]c1=O	inactive: -3.04%
Clc1cccc(Cl)c1C1Nc2cccc3cccc(c23)N1	inactive: -3.31%
CCC(NC(=O)NNC(N)=S)(C(F)(F)F)C(F)(F)F	inactive: -2.95%
CCn1ncc(Cl)c1C(=O)NC(=S)Nc1ccccc1Br	inactive: -2.87%
CCCCNC(=S)NNC(=O)CCn1nc(C)c(Br)c1C	inactive: -2.27%
Cc1nc2ccccc2nc(C)c1=NOCc1ccc(C#N)cc1	inactive: -1.14%
CCN(CC)c1ccc(/C=N/Nc2nn[nH]n2)cc1	inactive: -1.85%
COCCNC(=S)NN=C1CCCCCC1	inactive: -2.04%
NC(=S)N=Nc1c(O)n(Cc2ccc(F)cc2)c2ccccc12	inactive: -0.28%
Cn1c(SCC(=O)N/N=C/c2ccc([N+](=O)[O-])s2)nnc1-c1ccccc1	inactive: -4.21%

SMILES	activation
Cc1ccc(Nc2nc(CSc3nnc(-c4ccccc4C)n3C)cs2)cc1	inactive: -1.34%
O=Nc1onc(-c2ccc([N+](=O)[O-])cc2)c1NO	inactive: -3.64%
CCOc1ccc(C2=CSC3=NCCN23)cc1	inactive: -1.7%
C/C(=N\NC(=S)NCc1ccccc1)c1cccs1	inactive: -2.8%
COC(=O)c1c(NC(=O)CS(=O)(=O)c2ccccc2)sc(C)c1C	inactive: -1.35%
O=C(NC(=S)Nc1ccccc1Cl)C1CC1	inactive: -2.58%
COC(=O)c1ccc(NC(=O)c2ccccc2)o1	inactive: 0.298%
Cc1nc(C)c(CC(=O)N/N=C/c2ccc(O)cc2)c(=O)[nH]1	inactive: -2.66%
O=C(c1cccs1)N1N=C(c2ccc(O)cc2)CC1c1ccccc1 (centres undefined)	inactive: -1.1%
O=C(c1ccco1)N1CCCN(Cc2nc(-c3ccc4c(c3)OCO4)no2)CC1	inactive: -0.603%
COc1ccc(N2CCN(C(=O)C3CCN(S(=O)(=O)c4ccc(F)cc4)CC3)CC2)cc1	inactive: 0.327%
Fc1ccccc1NC(=S)Nn1cnnc1	inactive: -2.95%
C=C(C)C1Cc2c(C)nn(-c3ccccn3)c2C1 (centres undefined)	inactive: -2.48%
COc1ccc(NC(=O)C(=O)NCC(c2ccco2)N2CCc3ccccc32)cc1 (centres undefined)	inactive: -2.76%
CC(C)(C)c1ccc2c(c1)OC(C(=O)N/N=C\c1ccc[nH]1)CO2 (centres undefined)	inactive: -8.5%
CCNC(=S)N/N=C/c1ccco1	inactive: -3.62%
CC1=CC2=NC(=O)/C(=C\c3cccn3CCOc3cc(C)ccc3C)C(=N)N2O1	inactive: 6.22%

2 entries from above, bar-delimited:
SMILES | activation
Cc1nc(C)c(CC(=O)N/N=C/c2ccc(O)cc2)c(=O)[nH]1 | inactive: -2.66%
Fc1ccccc1NC(=S)Nn1cnnc1 | inactive: -2.95%
